Laboratory results as given in patent US9505734B2, “Phenyl C-glucoside derivative containing deoxyglucose structure, preparation method and use thereof” (Tianjin Institute of Pharmaceutical Research, priority 2012, dated 2016).
At least one structure is not confirmed: it was looked up by name or label, or the drawing left a doubt.

Assays:
[1] = tested on: SD rats (type 2 diabetes model); experiment: model for rat urine glucose excretion (glucose-oxidase method); assay type: in vivo; conditions: comparison in words, 6 mg/kg
Protocol: The health SD rats are injected intraperitoneally with multiple low doses of streptozotocin for modeling (type 2 diabetes model) after feeding with high-fat and high-sucrose diet, and the content of blood glucose is measured before and after modeling. After the modeling successful, the rats for modeling are randomly divided (8 rats/group) into one blank group (administering the same volume of 0.5% CMC sodium solution) and several groups for compounds to be tested (6 mg/kg) according to the content of 24-hour urine glucose and the body weight. Rats in each group are fasted for 16 hours before experiment. […] The urine is collected at the time-period of 0-12 h after administration, and the urine glucose values are measured at each time-period by glucose-oxidase method.
The inhibiting activity of the cocrystal of I-D1-6 and L-proline on SGLT2 is measured by the model for rat urine glucose excretion.
The health SD rats are injected intraperitoneally with multiple low doses of streptozotocin for modeling (type 2 diabetes model) after feeding with high-fat and high-sucrose diet for one month, and the content of blood glucose is measured before and after modeling. […] The urine is collected at the time-period of 0-12 h after administration, and the urine glucose values are measured at each time-period by glucose-oxidase method.

[2] = influencing factors test: light stability; assay type: physicochemical
Source text: (§1) The appearance, number of impurity and the amount of impurity (measured by HPLC) are compared with that of day 0.

[3] = influencing factors test: higher temperature stability; assay type: physicochemical; conditions: higher temperature (45° C.)
Source text: as §1

[4] = influencing factors test: higher humidity stability; assay type: physicochemical
Source text: as §1

In the case of `CCOc1ccc(Cc2cc(C3OC(C)C(O)C(O)C3O)ccc2Cl)cc1` [cocrystal of I-D1-6 and L-proline, cocrystal of (1S)-1-[4-chloro-3-(4-ethoxybenzyl)phenyl]-1,6-dideoxy-D-glucose (I-D1-6) and L-proline], the “urine glucose excretion effect (in words)” value [1] is reported as “stronger ability of discharging urine glucose”, the Appearance ([2]; light (natural daylight, about 80000 Lx), day 0) is reported as “white” and the Crystal form ([2]; light, day 0) is reported as “as shown in”. The Number of impurity ([2]; light, day 0, HPLC) was 3, the “Total amount of impurity (%)” value ([2]; light, day 0, HPLC) was 0.51% and the Appearance ([2]; light, day 7) was “white”. For the same compound, the Crystal form ([2]; light, day 7) was “unchanged”, the Number of impurity ([2]; light, day 7, HPLC) was 3 and the “Total amount of impurity (%)” value ([2]; light, day 7, HPLC) was 0.51%. For the same compound, the Appearance ([2]; light, day 14) was “white”, the Crystal form ([2]; light, day 14) was “unchanged” and the Number of impurity ([2]; light, day 14, HPLC) was 3. The “Total amount of impurity (%)” value ([2]; light, day 14, HPLC) was 0.52%, the Appearance ([3]; day 0) was “white” and the Crystal form ([3]; day 0) was “as shown in”. For the same compound, the Number of impurity ([3]; day 0, HPLC) was 3, the “Total amount of impurity (%)” value ([3]; day 0, HPLC) was 0.51% and the Appearance ([3]; day 7) was “white”. The Crystal form ([3]; day 7) was “unchanged”, the Number of impurity ([3]; day 7, HPLC) was 3 and the “Total amount of impurity (%)” value ([3]; day 7, HPLC) was 0.51%. The Appearance ([3]; day 14) was “white”, the Crystal form ([3]; day 14) was “unchanged” and the Number of impurity ([3]; day 14, HPLC) was 3. For the same compound, the “Total amount of impurity (%)” value ([3]; day 14, HPLC) was 0.51%, the Appearance ([4]; higher humidity (30% relative humidity at 30° C.), day 0) was “white” and the Crystal form ([4]; higher humidity, day 0) was “as shown in”. For the same compound, the Number of impurity ([4]; higher humidity, day 0, HPLC) was 3, the “Total amount of impurity (%)” value ([4]; higher humidity, day 0, HPLC) was 0.51% and the Appearance ([4]; higher humidity, day 7) was “white”. For the same compound, the Crystal form ([4]; higher humidity, day 7) was “unchanged”, the Number of impurity ([4]; higher humidity, day 7, HPLC) was 3 and the “Total amount of impurity (%)” value ([4]; higher humidity, day 7, HPLC) was 0.51%. The Appearance ([4]; higher humidity, day 14) was “white”, the Crystal form ([4]; higher humidity, day 14) was “unchanged” and the Number of impurity ([4]; higher humidity, day 14, HPLC) was 3. The “Total amount of impurity (%)” value ([4]; higher humidity, day 14, HPLC) was 0.52%.
